From patent publication US20060046972A1, “Cytotoxic nucleoside analog compound 003 for treating cancer” (Parker Hughes Institute, priority 2004, published 2006)
At least one structure is not confirmed: it was looked up by name or label, or the drawing left a doubt.

Experiments:
[1] = tested on: esterase-mediated metabolism of Compound 003 in Nalm6 cells; experiment: Inhibition of ala-AZT-MP formation by esterase inhibitors, Nalm6; assay type: cell-based, human; settings: 100 μM inhibitor, then 100 μM Compound 003 1 hour
Description: (§1) BT20 breast cancer cells were cultured in a medium composed of MEM, 10% FBS, 0:1 mM of nonessential amino acids and Earles salts, and 1% penicillin/streptornyclin Nalm6 cells were maintained in a medium composed of RPMI, 10% fetal bovine serum (FBS) and 1% penicillin/streptomycin. BT20 cells were seeded in 6-cm petri-dishes at 4 million cells per plate. Nalm6 cells at a density of 10^6 cells per ml were also utilized in drug metabolism study. Either one plate of adherent cells or 10 million nonadherent cells were utilized at each experiment. Cells were incubated with DMSO or 100 μM of esterase inhibitor, paraoxon, bis(p-nitrophenyl)phosphate (BNPP), physostigmine, or phenylmethylsulfonyl fluoride (PMSF) (Sigma) for 3.0 minutes, followed by 1 hour incubation of 100 μM Compound 003. After incubation, cells were washed two times with ice-cold PBS, and extracted by addition of 60% methanol. Cell lysates were kept at −20° C. overnight, after which lysates were centrifuged at 15,000×g for 10 minutes to remove the cell debris. One hundred microliters of these lysates were injected directly to HPLC. The amount of metabolite product of the esterase reaction, ala-AZT-MP, was measured to examine the effect of inhibitors on esterase-mediated metabolism of Compound 003.

[2] = tested on: esterase-mediated metabolism of Compound 003 in BT20 cells; experiment: Inhibition of ala-AZT-MP formation by esterase inhibitors, BT20; assay type: cell-based, human
Description: as §1

CNC(=O)Oc1ccc2c(c1)[C@]1(C)CCN(C)[C@@H]1N2C [physostigmine]
inhibition of metabolism of Compound 003 to ala-AZT-MP [1]: but not to cholinesterase inhibitor, physostigmine
potency order of esterase inhibitors [2]: paraoxon>BNPP>PMSF>physostigmine
inhibition of metabolism of Compound 003 to ala-AZT-MP ([2]; 100 μM inhibitor, then 100 μM Compound 003 1 hour): but not to cholinesterase inhibitor, physostigmine
